Laboratory results as given in PMC4847014.

Chains of the proteins cited; added tags and fusions are not shown. Lines headed by an entry give the natural chain unless they say otherwise; changes in a name come on top.
UniProt Q04207, whole entry: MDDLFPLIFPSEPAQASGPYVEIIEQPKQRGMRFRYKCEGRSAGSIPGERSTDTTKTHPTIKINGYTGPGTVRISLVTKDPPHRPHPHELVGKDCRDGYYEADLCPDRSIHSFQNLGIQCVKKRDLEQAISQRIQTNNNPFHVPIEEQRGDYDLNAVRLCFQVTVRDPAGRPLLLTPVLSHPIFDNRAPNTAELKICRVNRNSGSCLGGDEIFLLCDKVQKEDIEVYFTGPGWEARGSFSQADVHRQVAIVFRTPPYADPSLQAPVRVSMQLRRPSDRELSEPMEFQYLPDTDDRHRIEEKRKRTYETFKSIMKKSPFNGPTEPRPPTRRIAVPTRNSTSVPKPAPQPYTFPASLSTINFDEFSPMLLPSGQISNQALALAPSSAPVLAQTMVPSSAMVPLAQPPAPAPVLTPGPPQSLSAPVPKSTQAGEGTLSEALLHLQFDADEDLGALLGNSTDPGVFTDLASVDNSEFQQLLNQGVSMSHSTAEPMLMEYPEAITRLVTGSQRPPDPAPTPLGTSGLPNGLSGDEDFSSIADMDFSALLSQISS
UniProt Q9WV30: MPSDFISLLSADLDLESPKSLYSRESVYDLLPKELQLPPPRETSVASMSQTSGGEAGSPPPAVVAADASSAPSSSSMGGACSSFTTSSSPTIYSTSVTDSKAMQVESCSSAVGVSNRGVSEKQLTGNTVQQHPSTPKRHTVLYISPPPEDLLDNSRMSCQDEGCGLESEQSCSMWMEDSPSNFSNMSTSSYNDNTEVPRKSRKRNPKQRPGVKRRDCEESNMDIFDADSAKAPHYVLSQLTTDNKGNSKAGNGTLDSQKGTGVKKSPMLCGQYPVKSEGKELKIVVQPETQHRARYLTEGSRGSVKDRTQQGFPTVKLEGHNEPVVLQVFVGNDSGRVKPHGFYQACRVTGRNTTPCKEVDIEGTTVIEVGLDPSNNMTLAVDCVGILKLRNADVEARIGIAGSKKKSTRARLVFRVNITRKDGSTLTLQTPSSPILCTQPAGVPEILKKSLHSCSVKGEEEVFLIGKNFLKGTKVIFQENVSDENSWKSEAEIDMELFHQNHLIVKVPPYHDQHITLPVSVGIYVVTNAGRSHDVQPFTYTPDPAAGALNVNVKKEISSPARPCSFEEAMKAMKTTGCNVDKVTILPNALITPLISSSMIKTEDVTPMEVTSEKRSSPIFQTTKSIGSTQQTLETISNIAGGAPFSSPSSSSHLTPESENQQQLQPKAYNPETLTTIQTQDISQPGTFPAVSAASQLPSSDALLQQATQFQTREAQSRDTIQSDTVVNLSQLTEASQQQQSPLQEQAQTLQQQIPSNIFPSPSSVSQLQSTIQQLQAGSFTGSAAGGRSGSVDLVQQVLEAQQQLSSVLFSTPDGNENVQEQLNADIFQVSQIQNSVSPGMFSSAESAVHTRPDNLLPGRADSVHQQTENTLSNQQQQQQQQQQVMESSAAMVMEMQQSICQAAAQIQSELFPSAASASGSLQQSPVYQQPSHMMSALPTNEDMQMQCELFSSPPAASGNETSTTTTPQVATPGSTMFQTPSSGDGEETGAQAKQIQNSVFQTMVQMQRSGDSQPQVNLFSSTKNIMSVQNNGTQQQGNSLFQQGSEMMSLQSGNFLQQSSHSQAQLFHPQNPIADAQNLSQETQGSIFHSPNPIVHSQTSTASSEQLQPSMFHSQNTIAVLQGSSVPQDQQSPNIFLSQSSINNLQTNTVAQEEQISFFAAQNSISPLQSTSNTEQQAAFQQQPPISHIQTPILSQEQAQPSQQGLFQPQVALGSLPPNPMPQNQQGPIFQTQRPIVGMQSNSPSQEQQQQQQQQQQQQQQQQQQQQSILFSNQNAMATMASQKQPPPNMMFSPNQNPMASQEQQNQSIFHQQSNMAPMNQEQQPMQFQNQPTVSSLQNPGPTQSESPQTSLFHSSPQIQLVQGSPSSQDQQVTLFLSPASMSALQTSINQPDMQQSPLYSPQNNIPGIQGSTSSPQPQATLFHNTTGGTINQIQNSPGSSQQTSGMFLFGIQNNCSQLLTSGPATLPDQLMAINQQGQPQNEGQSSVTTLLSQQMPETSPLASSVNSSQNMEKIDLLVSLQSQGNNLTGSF

Tests used:
[1] = biological target: p65 (RelA), p65-containing NFkB in RAW264.7 nuclear extract (UniProt Q04207); assay: EMSA; conditions: TonEBP siRNA, binding not affected; EMSA: 5 ug nuclear extract, Lightshift kit binding buffer, poly(dI:dC), room temperature 20 min; protein in an extract; label: 5' biotin
[2] = biological target: p65 (RelA), p65-containing NFkB in RAW264.7 nuclear extract (UniProt Q04207); assay: EMSA supershift; conditions: EMSA: 5 ug nuclear extract, Lightshift kit binding buffer, poly(dI:dC), room temperature 20 min, protein in an extract, label: 5' biotin
[3] = biological target: p65 (RelA), p65-containing NFkB in RAW264.7 nuclear extract (UniProt Q04207); assay: DNA affinity pull-down; conditions: DAPA: 4 mM Tris-HCl pH 7.5, 20 mM HEPES pH 7.5, 5% glycerol, 170 mM NaCl, 0.5 mM EDTA, 1 mM MgCl2, 0.1% Triton X-100, 30 nM probe, overnight, protein in an extract, label: 5' biotin
[4] = tested on: p65 (RelA), p65-containing NFkB in RAW264.7 nuclear extract + TonEBP/NFAT5; assay: DNA affinity pull-down; conditions: LPS 1 h cell extract, TonEBP recruited indirectly via p65; DAPA: 4 mM Tris-HCl pH 7.5, 20 mM HEPES pH 7.5, 5% glycerol, 170 mM NaCl, 0.5 mM EDTA, 1 mM MgCl2, 0.1% Triton X-100, 30 nM probe, overnight; protein in an extract; label: 5' biotin
[5] = biological target: TonEBP/NFAT5 (UniProt Q9WV30); assay: EMSA; conditions: EMSA: 5 ug nuclear extract, Lightshift kit binding buffer, poly(dI:dC), room temperature 20 min; protein in an extract; label: 5' biotin, unlabeled as competitor
[6] = biological target: TonEBP/NFAT5 (UniProt Q9WV30); assay: competition with a labelled probe; conditions: EMSA: 5 ug nuclear extract, Lightshift kit binding buffer, poly(dI:dC), room temperature 20 min, protein in an extract, label: 5' biotin, unlabeled as competitor
[7] = biological target: TonEBP/NFAT5 (UniProt Q9WV30); assay: EMSA supershift; conditions: hypertonic (+75 mM NaCl, 24 h), TonEBP antiserum, competed by 50x cold T0; EMSA: 5 ug nuclear extract, Lightshift kit binding buffer, poly(dI:dC), room temperature 20 min; protein in an extract; label: 5' biotin

AAACAGGGGGCTTTCCCTCCTC (double strand) [N1 (kB site of TNFa promoter)]
binding result [1]: binds
binding result ([2]; LPS 1 h, p65 antibody, competed by 50x cold N1): binds
binding result ([2]; cells pretreated with cerulenin, LPS, binding not affected): binds
binding result ([3]; LPS 1 h cell extract, immunoblot): binds
binding result ([3]; TonEBP siRNA, binding not affected): binds
binding result [4]: binds

ACCAAGGAAGTTTTCCGAGGGTT (double strand) [T3 (putative TonE)]
binding result [5]: no binding
binding result ([6]; 50x unlabeled T3 against T0 probe): no binding

GCTCCGTGGAAAACTCACTTGG (double strand) [T1 (putative TonE)]
binding result [5]: no binding
binding result ([6]; 50x unlabeled T1 against T0 probe): no binding

TCATAATGGAAAATTCCATGCCA (double strand) [T0 (TonE positive control)]
binding result [7]: binds

TGTCCCCAACTTTCCAAACCCT (double strand) [T2 (putative TonE)]
binding result [5]: no binding
binding result ([6]; 50x unlabeled T2 against T0 probe): no binding

For at least one entry, the source does not settle the construct or the ends of the probe. Where cells or extracts were used, other partners may take part. For some of these results: A negative result means that nothing was seen under these conditions.
